Results are given in words; binding and its absence hold for the method and conditions named. Binding seen in cells or lysates may run through a third protein. Some binding calls cover weakened binding; strength is not graded here.

By UniProt entry, the sequences of proteins in these tests, tags left out.
UniProt Q9VI13: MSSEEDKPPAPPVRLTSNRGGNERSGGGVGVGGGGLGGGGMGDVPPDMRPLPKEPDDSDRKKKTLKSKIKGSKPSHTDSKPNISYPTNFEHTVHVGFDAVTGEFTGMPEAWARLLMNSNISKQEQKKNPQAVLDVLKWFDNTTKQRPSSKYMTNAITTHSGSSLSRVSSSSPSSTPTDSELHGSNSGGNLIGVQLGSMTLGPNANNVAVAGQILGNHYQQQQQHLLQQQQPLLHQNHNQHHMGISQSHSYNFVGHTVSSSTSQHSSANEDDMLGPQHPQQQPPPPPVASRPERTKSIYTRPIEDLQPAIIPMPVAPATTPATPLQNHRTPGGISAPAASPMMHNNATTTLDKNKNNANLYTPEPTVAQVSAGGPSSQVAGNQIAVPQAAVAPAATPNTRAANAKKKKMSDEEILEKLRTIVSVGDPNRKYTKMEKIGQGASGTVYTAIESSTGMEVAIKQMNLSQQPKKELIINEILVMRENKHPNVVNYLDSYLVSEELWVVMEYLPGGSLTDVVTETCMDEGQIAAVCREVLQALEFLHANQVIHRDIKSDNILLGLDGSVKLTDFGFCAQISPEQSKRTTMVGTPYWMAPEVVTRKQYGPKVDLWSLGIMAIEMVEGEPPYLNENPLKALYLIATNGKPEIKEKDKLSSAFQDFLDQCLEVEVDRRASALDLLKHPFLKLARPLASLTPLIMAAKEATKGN

This assay addresses T1, Discs large (Dlg) (Drosophila (endogenous in third instar larval body wall)) (UniProt P31007).
T1 sequence: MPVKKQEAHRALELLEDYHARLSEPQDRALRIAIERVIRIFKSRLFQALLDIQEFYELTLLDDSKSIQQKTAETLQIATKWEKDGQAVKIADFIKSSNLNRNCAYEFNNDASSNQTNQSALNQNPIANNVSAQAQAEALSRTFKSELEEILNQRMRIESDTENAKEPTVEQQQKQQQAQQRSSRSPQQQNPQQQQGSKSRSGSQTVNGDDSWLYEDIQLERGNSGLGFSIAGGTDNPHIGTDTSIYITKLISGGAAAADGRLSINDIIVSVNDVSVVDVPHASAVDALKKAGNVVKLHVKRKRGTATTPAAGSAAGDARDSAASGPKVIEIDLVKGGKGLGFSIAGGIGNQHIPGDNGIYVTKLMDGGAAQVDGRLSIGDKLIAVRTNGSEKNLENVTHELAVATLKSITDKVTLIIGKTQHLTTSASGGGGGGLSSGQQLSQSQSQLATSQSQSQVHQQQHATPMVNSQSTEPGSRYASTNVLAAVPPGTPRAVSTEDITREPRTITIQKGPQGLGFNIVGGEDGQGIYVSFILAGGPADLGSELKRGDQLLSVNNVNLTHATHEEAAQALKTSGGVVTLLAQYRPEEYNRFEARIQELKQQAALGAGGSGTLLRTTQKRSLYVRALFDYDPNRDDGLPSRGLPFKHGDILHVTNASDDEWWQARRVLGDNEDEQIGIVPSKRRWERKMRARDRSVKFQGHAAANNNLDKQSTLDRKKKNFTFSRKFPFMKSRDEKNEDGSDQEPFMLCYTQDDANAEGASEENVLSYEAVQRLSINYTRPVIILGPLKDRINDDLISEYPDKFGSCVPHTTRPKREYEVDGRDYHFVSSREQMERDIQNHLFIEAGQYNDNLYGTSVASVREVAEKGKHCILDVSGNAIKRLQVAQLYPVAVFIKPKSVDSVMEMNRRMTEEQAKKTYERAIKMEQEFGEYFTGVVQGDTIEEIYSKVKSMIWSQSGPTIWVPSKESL
The assay can be described thus: proximity ligation.

For “Pak (from UniProt Q9VI13 1-704) (enzyme)”, the binding entry is listed as “binds”.

B1: Draper (Drpr) (receptor, UniProt Q9W0A0 17-1031)
chain: QADLKDLDGPNICKRRELYNVDVVYTELQSFQERGSTWCVTFPPRCSTYRIKHRVVNKTKTIAKNRIVRDCCDGYIASAGECVPHCSEPCQHGRCISPEKCKCDHGYGGPACDINCPPGWYGRNCSMQCDCLNNAVCEPFSGDCECAKGYTGARCADICPEGFFGANCSEKCRCENGGKCHHVSGECQCAPGFTGPLCDMRCPDGKHGAQCQQDCPCQNDGKCQPETGACMCNPGWTGDVCANKCPVGSYGPGCQESCECYKGAPCHHITGQCECPPGYRGERCFDECQLNTYGFNCSMTCDCANDAMCDRANGTCICNPGWTGAKCAERICEANKYGLDCNRTCECDMEHTDLCHPETGNCQCSIGWSSAQCTRPCTFLRYGPNCELTCNCKNGAKCSPVNGTCLCAPGWRGPTCEESCEPGTFGQDCALRCDCQNGAKCEPETGQCLCTAGWKNIKCDRPCDLNHFGQDCAKVCDCHNNAACNPQNGSCTCAAGWTGERCERKCDTGKFGHDCAQKCQCDFNNSLACDATNGRCVCKQDWGGVHCETNCRSGYYGENCDKVCRCLNNSSCDPDSGNCICSAGWTGADCAEPCPPGFYGMECKERCPEILHGNKSCDHITGEILCRTGYIGLTCEHPCPAGLYGPGCKLKCNCEHGGECNHVTGQCQCLPGWTGSNCNESCPTDTYGQGCAQRCRCVHHKVCRKADGMCICETGWSGTRCDEVCPEGFYGEHCMNTCACPSANFQCHAAHGCVCRSGYTGDNCDELIASQRIADQSENSSRASVALTLVLMTLFACIIFAVFIYYRRRVSNLKTEIAHVHYTHDTNPPSWPPNHNFDNPVYGMQAETRLLPNNMRSKMNNFDQRSTMSTDYGDDCNASGRVGSYSINYNHDLLTKNLNADRTNPIVYNESLKEEHVYDEIKHKEGYKDPDEYDHLDYSRPSTSQKPHYHRMNDAMLNINQDEEKPSNVKNMTVLLNKPLPPTEPEPQHECFDNTNTNLDNVSTASPSSSPKFLK
Consider B1, for which the binding entry is on record as “binds”.

The values above are taken from doi:10.1101/846121.
